Measured values: patent publication US20100144672A1, “PYRIMIDINYL PYRAZOLES AS INSECTICIDES AND PARASITICIDE ACTIVE AGENTS” (BAYER CROPSCIENCE AG, priority 2006, published 2010)
Some of these results come from one statement about several compounds together.

Assays:
Type in all cases: in vivo
[1] = test system: Boophilus microplus; experiment: Boophilus microplus test (BOOPMI injection); conditions: application rate 20 μg/animal, after 7 d, injection into abdomen
[2] = test system: larvae of the mustard beetle (Phaedon cochleariae); experiment: Phaedon test (PHAECO spray treatment); conditions: application rate 500 g/ha, after 7 d
Experimental: Phaedon Test ([…] Spray Treatment) [table] To produce a suitable preparation of active compound, 1 part by weight of active compound is mixed with the stated amounts of solvents and emulsifier, and the concentrate is diluted with emulsifier-containing water to the desired concentration. Discs of chinese cabbage (Brassica pekinensis) are sprayed with an active compound preparation of the desired concentration and, after drying, populated with larvae of the mustard beetle (Phaedon cochleariae). After the desired period of time, the effect in % is determined 100% means that all beetle larvae have been killed; 0% means that none of the beetle larvae have been killed.

[3] = test system: caterpillars of the army worm (Spodoptera frugiperda); experiment: Spodoptera frugiperda test (SPODFR spray treatment); conditions: application rate 500 g/ha, after 7 d
Experimental: Spodoptera frugiperda Test (SPODFR Spray Treatment) [table] To produce a suitable preparation of active compound, 1 part by weight of active compound is mixed with the stated amounts of solvents and emulsifier, and the concentrate is diluted with emulsifier-containing water to the desired concentration. Discs of maize leaves (Zea mays) are sprayed with an active compound preparation of the desired concentration and, after drying, populated with caterpillars of the army worm (Spodoptera frugiperda). After the desired period of time, the effect in % is determined 100% means that all caterpillars have been killed; 0% means that none of the caterpillars have been killed.

| SMILES | activity in % (100% = no tick laid fertile eggs) [1] | activity (effect in %, beetle larvae killed) [2] | activity (effect in %, caterpillars killed) [3] |
| --- | --- | --- | --- |
| COc1ccc(-c2c(C(F)(F)F)nn(-c3ncccn3)c2N)cc1 [Example 5-22] | ≥ 80% |  |  |
| CCN(CC)c1c(-c2cccc(I)c2)c(C(F)(F)F)nn1-c1ncccn1 [Example 13-31] |  | ≥ 80% | ≥ 80% |
| Nc1c(-c2ccc(Br)cc2)c(C(F)(F)C(F)(F)F)nn1-c1ncccn1 [Example 18-48] |  | ≥ 80% | ≥ 80% |
| Nc1c(-c2cc(Cl)cc(C(F)(F)F)c2)c(C(F)(F)Cl)nn1-c1ncc(F)cn1 [Example 43-04] |  | ≥ 80% | ≥ 80% |
| CCCC(F)c1nn(-c2ncccn2)c(N)c1-c1ccc(Br)cc1 (stereo not shown) [Example 18-200] |  | ≥ 80% | ≥ 80% |
| CCN(CC)c1c(-c2ccc(F)c(Cl)c2)c(C(F)(F)F)nn1-c1ncccn1 [Example 13-115] |  | ≥ 80% | ≥ 80% |
| CC(F)(F)c1nn(-c2ncccn2)c(N)c1-c1ccc(Cl)cc1 [Example 18-26] |  | ≥ 80% | ≥ 80% |
| CNc1c(-c2cc(Cl)cc(Cl)c2)c(C(F)(F)F)nn1-c1ncccn1 [Example 11-82] |  | ≥ 80% | ≥ 80% |
| CC(=O)Nc1c(-c2cc(Cl)cc(C(F)(F)F)c2)c(C(F)(F)F)nn1-c1ncccn1 [Example 29-164] |  | ≥ 80% | ≥ 80% |
| Nc1c(-c2ccc(Br)c(Cl)c2)c(C(F)(F)C(F)(F)F)nn1-c1ncccn1 [Example 18-246] |  | ≥ 80% | ≥ 80% |
| Nc1c(-c2cc(Cl)cc(C(F)(F)F)c2)c(C(F)(F)F)nn1-c1ncc(F)cn1 [Example 43-05] |  | ≥ 80% | ≥ 80% |
| CC(C)Nc1c(-c2cc(Cl)cc(Cl)c2)c(C(F)(F)F)nn1-c1ncccn1 [Example 27-38] |  | ≥ 80% | ≥ 80% |
| FC(F)(F)c1nn(-c2ncccn2)c(NCC2CC2)c1-c1cc(Cl)cc(Cl)c1 [Example 27-76] |  | ≥ 80% | ≥ 80% |
| CCc1nn(-c2ncccn2)c(N)c1-c1cc(Cl)cc(Cl)c1 [Example 16-39] |  | ≥ 80% | ≥ 80% |
| CC(=O)Nc1c(-c2cc(C(F)(F)F)cc(C(F)(F)F)c2)c(C(F)(F)F)nn1-c1ncccn1 [Example 29-163] |  | ≥ 80% | ≥ 80% |
| CC(=O)Nc1c(-c2ccc(OC(F)F)cc2)c(C(F)(F)F)nn1-c1ncccn1 [Example 29-156] |  | ≥ 80% | ≥ 80% |
| CC(F)c1nn(-c2ncccn2)c(N)c1-c1cc(Br)cc(Br)c1 (stereo not shown) [Example 18-243] |  | ≥ 80% | ≥ 80% |
| CC(F)(F)c1nn(-c2ncc(F)cn2)c(N)c1-c1cc(Cl)cc(C(F)(F)F)c1 [Example 43-06] |  | ≥ 80% | ≥ 80% |
| FC(F)c1nn(-c2ncccn2)c(NCc2ccccc2)c1-c1cc(Cl)cc(Cl)c1 [Example 42-96] |  | ≥ 80% | ≥ 80% |
| CCC(F)c1nn(-c2ncccn2)c(N)c1-c1cc(Cl)cc(Cl)c1 (stereo not shown) [Example 18-190] |  | ≥ 80% | ≥ 80% |

| SMILES | activity in % (100% = no tick laid fertile eggs) [1] | activity (effect in %, beetle larvae killed) [2] | activity (effect in %, caterpillars killed) [3] |
| --- | --- | --- | --- |
| CC(=O)N(C(C)=O)c1c(-c2ccc(OC(F)F)cc2)c(C(F)(F)F)nn1-c1ncccn1 [Example 29-161] |  | ≥ 80% | ≥ 80% |
| COC(=O)C(=O)Nc1c(-c2ccc(Br)cc2)c(C(F)(F)F)nn1-c1ncccn1 [Example 30-10] |  | ≥ 80% | ≥ 80% |
| CC(F)c1nn(-c2ncccn2)c(N)c1-c1ccc(Cl)c(C(F)(F)F)c1 (stereo not shown) [Example 18-245] |  | ≥ 80% | ≥ 80% |
| CC(F)(F)c1nn(-c2ncccn2)c(N)c1-c1ccc(I)cc1 [Example 18-32] |  | ≥ 80% | ≥ 80% |
| CC(C)Nc1c(-c2ccc(Cl)cc2)c(C(F)(F)F)nn1-c1ncccn1 [Example 27-26] |  | ≥ 80% | ≥ 80% |
| CC(F)c1nn(-c2ncccn2)c(N)c1-c1cc(C(F)(F)F)cc(C(F)(F)F)c1 (stereo not shown) [Example 18-231] |  | ≥ 80% | ≥ 80% |
| CCNc1c(-c2ccc(OC(F)F)cc2)c(C(F)(F)F)nn1-c1ncccn1 [Example 12-103] |  | ≥ 80% | ≥ 80% |
| CC(F)(F)c1nn(-c2ncccn2)c(N)c1-c1cc(F)cc(C(F)(F)F)c1 [Example 18-240] |  | ≥ 80% | ≥ 80% |
| CCN(CC)c1c(-c2ccc(I)cc2)c(C(F)(F)F)nn1-c1ncccn1 [Example 13-32] |  | ≥ 80% | ≥ 80% |
| CCNc1c(-c2ccc(F)c(Cl)c2)c(C(F)(F)F)nn1-c1ncccn1 [Example 12-80] |  | ≥ 80% | ≥ 80% |
| Nc1c(-c2ccc(SC(F)(F)F)cc2)c(C(F)(F)F)nn1-c1ncccn1 [Example 5-62] | ≥ 80% |  |  |
| COC(F)(F)C(F)(F)c1nn(-c2ncccn2)c(N)c1-c1cc(Cl)cc(Cl)c1 [Example 18-229] |  | ≥ 80% | ≥ 80% |
| CCCNc1c(-c2cc(Cl)cc(Cl)c2)c(C(F)(F)F)nn1-c1ncccn1 [Example 27-19] |  | ≥ 80% | ≥ 80% |
| CC(C)(F)c1nn(-c2ncccn2)c(N)c1-c1ccc(Br)cc1 [Example 18-124] |  | ≥ 80% | ≥ 80% |
| Nc1c(-c2cc(Cl)cc(C(F)(F)F)c2)c(C(F)(F)Br)nn1-c1ncc(F)cn1 [Example 43-03] |  | ≥ 80% | ≥ 80% |
| CC(=O)N(C(C)=O)c1c(-c2ccc(F)c(Cl)c2)c(C(F)(F)F)nn1-c1ncccn1 [Example 29-162] |  | ≥ 80% | ≥ 80% |
| CCCC(F)c1nn(-c2ncccn2)c(N)c1-c1cc(Cl)cc(Cl)c1 (stereo not shown) [Example 18-209] |  | ≥ 80% | ≥ 80% |
| CN(C)c1c(-c2cc(Cl)cc(Cl)c2)c(C(F)(F)F)nn1-c1ncccn1 [Example 13-19] |  | ≥ 80% | ≥ 80% |
| CCC(F)c1nn(-c2ncccn2)c(N)c1-c1ccc(Br)cc1 (stereo not shown) [Example 18-181] |  | ≥ 80% | ≥ 80% |
